This is one part of the list.
Compound: Cc1cc(Nc2cc(CN3CCOCC3)c3nc(C)c(Cc4ccc(Cl)cc4F)n3n2)n[nH]1 [gandotinib]
Assay: log2 fold change, soluble protein after heating vs DMSO (PISA); higher = thermal stabilisation; K562 cells, 10 uM, 30 min; active = over 0.2 and 3.5 SD of the protein, either way, in both replicates (recomputed)
Procedure, shortened: (§1)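 K562 cells (2×10^6 cells/mL) were treated with 10 μM compound for 30 min, and aliquots were heated for 3 min over 48°C-58°C. Pooled aliquots were extracted in PBS with 0.5% NP-40 at 4°C, and the supernatant after 21,000xg for 90 min was measured by TMTpro 16plex LC-MS/MS with channel sums equalised. Reported thermal stability, relative to control samples and from duplicates, is a log2 fold change.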

Chains of the proteins cited; added tags and fusions are not shown. Lines headed by an entry give the natural chain unless they say otherwise; changes in a name come on top.
UniProt P10301: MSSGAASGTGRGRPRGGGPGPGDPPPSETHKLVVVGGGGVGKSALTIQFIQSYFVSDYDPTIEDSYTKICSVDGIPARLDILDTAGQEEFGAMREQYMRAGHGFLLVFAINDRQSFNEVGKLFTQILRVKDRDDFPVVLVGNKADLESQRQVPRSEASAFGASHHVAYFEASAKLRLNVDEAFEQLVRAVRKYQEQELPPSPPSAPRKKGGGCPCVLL
UniProt O60942: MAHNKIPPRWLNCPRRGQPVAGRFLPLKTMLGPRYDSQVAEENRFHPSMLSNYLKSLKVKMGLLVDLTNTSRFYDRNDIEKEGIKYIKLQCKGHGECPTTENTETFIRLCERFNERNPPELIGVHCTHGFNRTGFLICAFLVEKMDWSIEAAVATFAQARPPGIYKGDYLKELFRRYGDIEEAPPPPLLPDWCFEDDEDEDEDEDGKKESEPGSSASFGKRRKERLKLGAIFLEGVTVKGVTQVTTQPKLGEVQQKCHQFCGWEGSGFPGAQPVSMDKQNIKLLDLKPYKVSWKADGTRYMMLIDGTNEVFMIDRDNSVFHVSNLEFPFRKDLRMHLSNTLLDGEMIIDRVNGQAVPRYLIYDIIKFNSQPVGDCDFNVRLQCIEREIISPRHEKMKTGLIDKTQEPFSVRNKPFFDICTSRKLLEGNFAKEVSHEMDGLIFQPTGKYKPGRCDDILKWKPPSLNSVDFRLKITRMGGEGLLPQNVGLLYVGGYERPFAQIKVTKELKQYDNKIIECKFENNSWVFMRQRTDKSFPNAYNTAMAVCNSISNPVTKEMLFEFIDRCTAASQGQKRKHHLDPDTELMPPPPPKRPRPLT
UniProt Q9H6T3, whole entry, looked up: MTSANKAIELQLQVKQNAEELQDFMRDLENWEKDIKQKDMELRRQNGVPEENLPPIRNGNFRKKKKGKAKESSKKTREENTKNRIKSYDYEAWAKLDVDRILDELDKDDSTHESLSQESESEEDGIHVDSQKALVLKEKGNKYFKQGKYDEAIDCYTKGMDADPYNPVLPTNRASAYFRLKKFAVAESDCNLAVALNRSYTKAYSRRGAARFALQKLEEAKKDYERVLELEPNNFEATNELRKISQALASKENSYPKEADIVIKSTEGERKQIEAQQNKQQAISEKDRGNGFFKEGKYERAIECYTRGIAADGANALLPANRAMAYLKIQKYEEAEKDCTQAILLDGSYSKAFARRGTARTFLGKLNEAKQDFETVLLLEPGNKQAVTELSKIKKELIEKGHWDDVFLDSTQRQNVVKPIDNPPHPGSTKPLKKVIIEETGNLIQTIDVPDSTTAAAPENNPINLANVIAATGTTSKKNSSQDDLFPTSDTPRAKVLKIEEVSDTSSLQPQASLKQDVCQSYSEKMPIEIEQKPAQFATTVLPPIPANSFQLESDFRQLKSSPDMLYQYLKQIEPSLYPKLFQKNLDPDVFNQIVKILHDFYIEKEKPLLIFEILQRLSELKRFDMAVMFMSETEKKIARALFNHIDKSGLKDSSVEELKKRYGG
UniProt Q92901: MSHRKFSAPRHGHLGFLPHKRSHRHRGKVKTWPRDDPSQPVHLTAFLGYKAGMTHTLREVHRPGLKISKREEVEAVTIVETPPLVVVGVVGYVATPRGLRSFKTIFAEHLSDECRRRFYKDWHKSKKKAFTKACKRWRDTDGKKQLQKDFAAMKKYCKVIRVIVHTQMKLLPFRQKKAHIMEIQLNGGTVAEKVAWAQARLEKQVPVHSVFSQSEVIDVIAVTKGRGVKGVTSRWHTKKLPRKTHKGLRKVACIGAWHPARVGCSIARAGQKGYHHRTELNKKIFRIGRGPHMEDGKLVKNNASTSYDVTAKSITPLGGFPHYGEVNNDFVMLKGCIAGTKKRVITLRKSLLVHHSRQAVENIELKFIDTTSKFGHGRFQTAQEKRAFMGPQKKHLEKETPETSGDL
UniProt P13489: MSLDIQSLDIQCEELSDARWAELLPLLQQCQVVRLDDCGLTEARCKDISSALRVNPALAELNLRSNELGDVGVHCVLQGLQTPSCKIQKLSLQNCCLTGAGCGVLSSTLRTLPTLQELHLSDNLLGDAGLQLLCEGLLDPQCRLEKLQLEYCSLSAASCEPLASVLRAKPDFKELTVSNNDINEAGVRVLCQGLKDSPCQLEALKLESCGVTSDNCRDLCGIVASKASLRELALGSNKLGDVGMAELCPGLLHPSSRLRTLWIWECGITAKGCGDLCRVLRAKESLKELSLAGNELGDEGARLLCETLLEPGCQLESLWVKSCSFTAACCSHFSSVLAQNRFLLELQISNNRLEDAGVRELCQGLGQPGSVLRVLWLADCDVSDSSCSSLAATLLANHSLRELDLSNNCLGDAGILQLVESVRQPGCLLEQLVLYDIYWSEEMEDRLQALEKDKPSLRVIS
UniProt P04843: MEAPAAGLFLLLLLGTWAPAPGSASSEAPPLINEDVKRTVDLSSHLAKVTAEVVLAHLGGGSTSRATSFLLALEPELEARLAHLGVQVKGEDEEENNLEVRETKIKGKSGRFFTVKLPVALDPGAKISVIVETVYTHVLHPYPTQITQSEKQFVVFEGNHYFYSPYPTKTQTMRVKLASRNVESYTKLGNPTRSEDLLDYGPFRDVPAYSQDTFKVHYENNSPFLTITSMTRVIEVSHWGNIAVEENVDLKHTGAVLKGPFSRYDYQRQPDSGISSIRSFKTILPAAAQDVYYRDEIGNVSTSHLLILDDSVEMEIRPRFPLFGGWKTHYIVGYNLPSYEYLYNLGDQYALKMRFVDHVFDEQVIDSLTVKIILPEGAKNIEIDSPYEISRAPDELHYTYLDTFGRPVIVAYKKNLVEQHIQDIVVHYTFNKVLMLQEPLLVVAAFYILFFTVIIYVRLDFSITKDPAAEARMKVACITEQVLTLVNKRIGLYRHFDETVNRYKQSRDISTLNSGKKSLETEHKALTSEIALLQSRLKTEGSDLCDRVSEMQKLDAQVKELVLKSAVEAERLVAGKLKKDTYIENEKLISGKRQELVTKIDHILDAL
UniProt P78346: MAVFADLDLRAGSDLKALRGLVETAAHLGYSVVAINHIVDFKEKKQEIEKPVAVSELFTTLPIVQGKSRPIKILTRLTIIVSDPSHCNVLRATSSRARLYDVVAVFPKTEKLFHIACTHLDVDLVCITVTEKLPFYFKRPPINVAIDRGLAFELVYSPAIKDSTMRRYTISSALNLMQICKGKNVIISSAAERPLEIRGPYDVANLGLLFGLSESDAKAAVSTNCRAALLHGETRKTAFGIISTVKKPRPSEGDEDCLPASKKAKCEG
UniProt P10155: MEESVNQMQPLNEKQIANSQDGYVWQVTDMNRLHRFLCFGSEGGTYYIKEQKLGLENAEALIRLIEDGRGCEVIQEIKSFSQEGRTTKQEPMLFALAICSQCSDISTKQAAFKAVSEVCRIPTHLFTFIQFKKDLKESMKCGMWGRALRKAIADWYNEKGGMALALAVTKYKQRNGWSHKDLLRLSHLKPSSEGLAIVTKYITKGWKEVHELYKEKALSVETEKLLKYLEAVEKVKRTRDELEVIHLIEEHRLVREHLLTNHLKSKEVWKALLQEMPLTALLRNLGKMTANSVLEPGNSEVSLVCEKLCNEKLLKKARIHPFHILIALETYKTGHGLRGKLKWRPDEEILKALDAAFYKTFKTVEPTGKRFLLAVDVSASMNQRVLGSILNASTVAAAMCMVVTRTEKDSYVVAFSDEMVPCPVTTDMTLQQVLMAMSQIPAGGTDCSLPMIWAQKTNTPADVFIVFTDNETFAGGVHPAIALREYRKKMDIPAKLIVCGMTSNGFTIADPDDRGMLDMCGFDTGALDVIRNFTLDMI
UniProt Q7LG56, whole entry, looked up: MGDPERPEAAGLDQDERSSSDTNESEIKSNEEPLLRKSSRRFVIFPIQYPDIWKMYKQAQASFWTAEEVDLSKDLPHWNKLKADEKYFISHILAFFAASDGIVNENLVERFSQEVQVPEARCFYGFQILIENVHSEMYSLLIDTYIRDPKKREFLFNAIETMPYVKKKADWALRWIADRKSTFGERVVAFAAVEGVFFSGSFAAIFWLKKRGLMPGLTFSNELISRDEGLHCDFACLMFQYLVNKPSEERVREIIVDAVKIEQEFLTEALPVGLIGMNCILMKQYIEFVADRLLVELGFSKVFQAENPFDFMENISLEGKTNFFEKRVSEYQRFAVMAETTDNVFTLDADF
UniProt O75695: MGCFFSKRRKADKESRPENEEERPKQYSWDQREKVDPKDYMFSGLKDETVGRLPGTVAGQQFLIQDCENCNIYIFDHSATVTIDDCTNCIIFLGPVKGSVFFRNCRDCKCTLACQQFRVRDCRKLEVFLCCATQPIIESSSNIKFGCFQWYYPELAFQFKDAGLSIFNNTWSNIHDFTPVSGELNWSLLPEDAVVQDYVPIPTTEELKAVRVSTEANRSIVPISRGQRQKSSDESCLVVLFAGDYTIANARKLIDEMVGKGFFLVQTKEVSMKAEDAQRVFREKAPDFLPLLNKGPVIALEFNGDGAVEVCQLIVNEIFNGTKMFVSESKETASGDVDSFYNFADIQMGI
UniProt O75818: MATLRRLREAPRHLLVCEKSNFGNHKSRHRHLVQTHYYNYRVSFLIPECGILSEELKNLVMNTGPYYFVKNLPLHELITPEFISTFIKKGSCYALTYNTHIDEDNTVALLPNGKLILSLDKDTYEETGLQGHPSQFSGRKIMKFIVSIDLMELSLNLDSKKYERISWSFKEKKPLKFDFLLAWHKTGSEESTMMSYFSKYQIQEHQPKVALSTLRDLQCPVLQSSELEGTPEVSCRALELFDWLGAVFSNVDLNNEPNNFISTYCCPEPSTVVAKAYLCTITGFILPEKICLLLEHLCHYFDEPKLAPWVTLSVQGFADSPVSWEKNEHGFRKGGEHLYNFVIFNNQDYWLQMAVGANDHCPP

log2 fold change, inactive:
RPS6 (UniProt P62753) 0.276, RRAS (UniProt P10301) 0.004, RPL7 (UniProt P18124) 0.484, RPL13A (UniProt P40429) 0.369, RPL26 (UniProt P61254) 0.342, RPS29 (UniProt P62273) 0.285, RNGTT (UniProt O60942) -0.134, RPAP3 (UniProt Q9H6T3) -0.036, RPL3L (UniProt Q92901) 0.383

Compound: Cc1cc(Nc2cc(N3CCN(C)CC3)nc(Sc3ccc(NC(=O)C4CC4)cc3)n2)n[nH]1 [tozasertib]
Assay: as above
Procedure, shortened: as §1

log2 fold change, inactive:
RPL9 (UniProt P32969) 0.039, RNH1 (UniProt P13489) 0.027, RPL24 (UniProt P83731) 0.051, RPS17 (UniProt P08708) -0.005, RPL17 isoform 3 (UniProt P18621) 0.039, RPN1 (UniProt P04843) -0.003, RPP30 isoform 2 (UniProt P78346) -0.018, RPL15 (UniProt P61313) 0.069, RO60 (UniProt P10155) -0.003, RRM2B isoform 6 (UniProt Q7LG56) -0.031, RP2 (UniProt O75695) -0.045, RPP40 (UniProt O75818) 0.025, RPL36 (UniProt Q9Y3U8) 0.031, RPL11 (UniProt P62913) 0.072

From the supplement of paper PMC10849652
